Test results from the supplement of paper PMC10331698.
± gives the standard deviation of the averaged measurements. Small differences around the control level are noise.

Assays:
Assay in all cases: level (log10 ratio to DMSO vehicle control); higher = higher biomarker level / cell amount than vehicle control
[1] = compound: FC(F)(F)C(F)(F)C(F)(F)C(F)(F)C(F)(F)C(F)(F)CC1CO1 [3-(Perfluorohexyl)-1,2-epoxypropane]; conditions: 2200 nM; in DMSO
Experimental: (§1)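 BioMAP Diversity Plus panel of 12 human primary cell co-culture systems (3C, 4H, LPS, SAg, BT, BF4T, BE3C, CASM3C, HDF3CGF, KF3CT, MyoF, Mphg). Compounds were added 1 h before stimulation and left for 24 h (MyoF 48 h; BT 72 h for soluble read-outs or 6 d for IgG). Biomarkers were read by ELISA, cytotoxicity by SRB, PBMC viability and proliferation by Alamar Blue. Each well value was divided by the mean of 8 DMSO control wells on the same plate and log10 transformed; duplicate blinded samples were tested at 4 concentrations.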

1-(Perfluorohexyl)octane = compound: CCCCCCCCC(F)(F)C(F)(F)C(F)(F)C(F)(F)C(F)(F)C(F)(F)F [1-(Perfluorohexyl)octane]; conditions: in DMSO
Experimental: as §1

Perfluoroheptanoic acid = compound: O=C(O)C(F)(F)C(F)(F)C(F)(F)C(F)(F)C(F)(F)C(F)(F)F [Perfluoroheptanoic acid]; conditions: in DMSO
Experimental: as §1

[2] = compound: Cc1ccc(S(=O)(=O)OCC(F)(F)C(F)(F)C(F)(F)C(F)(F)C(F)(F)C(F)F)cc1 [1H,1H,7H-Perfluoroheptyl 4-methylbenzenesulfonate]; conditions: 2200 nM; in DMSO
Experimental: as §1

[3] = compound: CC(C)(C)C(=O)CC(=O)C(F)(F)C(F)(F)C(F)(F)F [(Heptafluorobutanoyl)pivaloylmethane]; conditions: 2200 nM; in DMSO
Experimental: as §1

Perfluoropentanoic acid = compound: O=C(O)C(F)(F)C(F)(F)C(F)(F)C(F)(F)F [Perfluoropentanoic acid]; conditions: in DMSO
Experimental: as §1

[4] = compound: CCN(CCO)S(=O)(=O)C(F)(F)C(F)(F)C(F)(F)C(F)(F)C(F)(F)C(F)(F)C(F)(F)C(F)(F)F [N-Ethyl-N-(2-hydroxyethyl)perfluorooctanesulfonamide]; conditions: in DMSO
Experimental: as §1

[5] = compound: CN(C(=O)C(F)(F)C(F)(F)C(F)(F)F)[Si](C)(C)C [N-Methyl-N-trimethylsilylheptafluorobutyramide]; conditions: 2200 nM; in DMSO
Experimental: as §1

[6] = compound: O=S(=O)(O)CCC(F)(F)C(F)(F)C(F)(F)C(F)(F)C(F)(F)C(F)(F)C(F)(F)C(F)(F)F [8:2 Fluorotelomer sulfonic acid]; conditions: in DMSO
Experimental: as §1

[7] = compound: O=C(O)C(F)(F)C(F)(F)C(F)(F)C(F)(F)C(F)(F)C(F)(F)C(F)(F)C(F)(F)C(F)(F)C(F)F [11-H-Perfluoroundecanoic acid]; conditions: 2200 nM; in DMSO
Experimental: as §1

Heptafluorobutyramide = compound: NC(=O)C(F)(F)C(F)(F)C(F)(F)F [Heptafluorobutyramide]; conditions: 2200 nM; in DMSO
Experimental: as §1

1H,1H-Heptafluorobutanol = compound: OCC(F)(F)C(F)(F)C(F)(F)F [1H,1H-Heptafluorobutanol]; conditions: 2200 nM; in DMSO
Experimental: as §1

[8] = compound: O=C(O)C(F)(F)C(F)(F)C(F)(F)OC(F)(F)F [Perfluoro(4-methoxybutanoic) acid]; conditions: 2200 nM; in DMSO
Experimental: as §1

Octafluoroadipic acid = compound: O=C(O)C(F)(F)C(F)(F)C(F)(F)C(F)(F)C(=O)O [Octafluoroadipic acid]; conditions: 2200 nM; in DMSO
Experimental: as §1

[9] = compound: NCC(F)(F)C(F)(F)C(F)(F)C(F)(F)C(F)(F)C(F)(F)C(F)(F)F [1H,1H-Perfluorooctylamine]; conditions: 2200 nM; in DMSO
Experimental: as §1

[10] = compound: OCCC(F)(F)C(F)(F)C(F)(F)C(F)(F)C(F)(F)C(F)(F)F [6:2 Fluorotelomer alcohol]; conditions: 2200 nM; in DMSO
Experimental: as §1

| Test System | level (log10) [1] | level (log10) (1-(Perfluorohexyl)octane; 740 nM) | level (log10) (1-(Perfluorohexyl)octane; 2200 nM) | level (log10) (Perfluoroheptanoic acid; 2200 nM) | level (log10) (Perfluoroheptanoic acid; 6700 nM) | level (log10) (Perfluoroheptanoic acid; 20000 nM) | level (log10) (Perfluoroheptanoic acid; 60000 nM) | level (log10) [2] | level (log10) [3] | level (log10) (Perfluoropentanoic acid; 2200 nM) | level (log10) (Perfluoropentanoic acid; 6700 nM) | level (log10) (Perfluoropentanoic acid; 20000 nM) | level (log10) (Perfluoropentanoic acid; 60000 nM) | level (log10) ([4]; 2200 nM) | level (log10) ([4]; 6700 nM) | level (log10) ([4]; 20000 nM) | level (log10) [5] | level (log10) ([6]; 2200 nM) | level (log10) ([6]; 6700 nM) | level (log10) ([6]; 20000 nM) | level (log10) ([6]; 60000 nM) | level (log10) [7] | level (log10) (Heptafluorobutyramide) | level (log10) (1H,1H-Heptafluorobutanol) | level (log10) [8] | level (log10) (Octafluoroadipic acid) | level (log10) [9] | level (log10) [10] |
| --- | --- | --- | --- | --- | --- | --- | --- | --- | --- | --- | --- | --- | --- | --- | --- | --- | --- | --- | --- | --- | --- | --- | --- | --- | --- | --- | --- | --- |
| BE3C:EGFR | 0.0015 ± 0.029 | -0.0035 ± 0.019 | -0.006 ± 0.013 | 0.02 ± 0.027 | -0.0065 ± 0.0078 | 0.0045 ± 0.0021 | -0.0005 ± 0.033 | -0.008 ± 0.0099 | 0.0135 ± 0.03 | 0.001 ± 0.017 | -0.0025 ± 0.021 | -0.011 ± 0.0057 | 0.004 ± 0.018 | -0.0105 ± 0.0064 | -0.02 ± 0.0014 | -0.072 ± 0.0057 | -0.0125 ± 0.011 | 0 ± 0.0099 | 0.002 ± 0.0028 | -0.014 ± 0.018 | 0.004 ± 0.0099 | -0.0135 ± 0.00071 | -0.0065 ± 0.023 | -0.001 ± 0.0042 | 0.011 ± 0.018 | -0.001 ± 0.014 | -0.0045 ± 0.0078 | 0.0175 ± 0.06 |
| BE3C:HLA-DR | 0.003 ± 0.045 | 0.0195 ± 0.015 | 0.0065 ± 0.032 | 0.016 ± 0.031 | -0.009 ± 0.0014 | -0.004 ± 0.0014 | 0.002 ± 0.027 | -0.0095 ± 0.018 | 0.004 ± 0.0071 | 0.0125 ± 0.026 | -0.0095 ± 0.018 | 0 ± 0.011 | 0.016 ± 0.033 | -0.033 ± 0.023 | -0.0445 ± 0.013 | -0.115 ± 0.031 | 0.007 ± 0.025 | -0.0045 ± 0.019 | -0.0175 ± 0.037 | -0.111 ± 0.005 | -0.255 ± 0.0014 | -0.047 ± 0.037 | 0.0175 ± 0.033 | -0.0025 ± 0.015 | 0.003 ± 0.014 | 0.009 ± 0.0099 | 0.026 ± 0.0014 | 0.0205 ± 0.059 |
| BE3C:IL-1alpha | 0.006 ± 0.041 | 0.009 ± 0.0028 | 0.014 ± 0.014 | 0.003 ± 0.061 | -0.0185 ± 0.029 | -0.0065 ± 0.03 | 0.0115 ± 0.0064 | 0.0125 ± 0.018 | -0.0075 ± 0.013 | 0.015 ± 0.011 | 0.005 ± 0.02 | 0 ± 0.0028 | 0.0155 ± 0.029 | 0.0145 ± 0.021 | 0.0165 ± 0.005 | -0.0485 ± 0.059 | 0.0205 ± 0.044 | 0.0085 ± 0.0035 | 0.016 ± 0.027 | -0.0055 ± 0.0064 | -0.043 ± 0.037 | 0.045 ± 0.052 | -0.0085 ± 0.0021 | 0.006 ± 0.034 | 0.052 ± 0.0014 | 0.037 ± 0.0085 | -0.0025 ± 0.035 | 0.027 ± 0.041 |
| BE3C:Keratin 8/18 | -0.004 ± 0.0028 | 0.0165 ± 0.011 | -0.0005 ± 0.0035 | 0.0045 ± 0.03 | -0.0135 ± 0.005 | -0.0135 ± 0.0078 | -0.0025 ± 0.012 | -0.012 ± 0.0042 | 0.013 ± 0.021 | 0.0125 ± 0.018 | -0.006 ± 0.0057 | -0.011 ± 0.0071 | 0.0035 ± 0.032 | -0.01 ± 0.018 | 0 ± 0.014 | -0.007 ± 0.014 | -0.002 ± 0.025 | -0.008 ± 0.0071 | 0.007 ± 0.0042 | 0.017 ± 0.0085 | 0.043 ± 0.014 | -0.0135 ± 0.044 | -0.0145 ± 0.025 | -0.0245 ± 0.013 | -0.0105 ± 0.005 | 0.004 ± 0.027 | -0.013 ± 0.0085 | -0.0045 ± 0.025 |
